Experimental data from PubChem BioAssay AID1347075 (National Center for Advancing Translational Sciences (NCATS), 2019).
In all, about 400,000 compounds went through this assay and about 5,500 (1.4%) were called active. The inconclusive results got no clear call from the source; some entries with a clear call stand among them for comparison. Calls come from the whole dose curve; as a rule, active = well fitted cell-killing curve with a large enough effect; inconclusive = small, poorly fitted or top-dose-only effect, or effect the other way; inactive = flat fitted curve, though single readings scatter. A potency beside an inconclusive call is a rough fit, not a confirmed value.

Assay: qHTS assay for MDR1-selective chemotherapeutics: Primary screen using the parental adenocarcinoma cell KB-3-1; note: nearly all actives have a fitted effect of over 60% in size
Conditions: KB-3-1 viability, CellTiter-Glo ATP luminescence, 72 h; activity change, negative = cytotoxic: at 46.1 µM (top of the series)
Summary of the method: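 Here the drug-naive KB-3-1 line serves as comparator for MDR sub-line selectivity; cells received compound titrations, 72 h at 37 °C, then CellTiter-Glo readout.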
% is set by controls: 0 for no effect and ±100 for the full control effect; potency is the fitted concentration of half-maximal effect.

Compound | Potency | activity change, negative = cytotoxic
Cc1ccc(NC2c3ccccc3C(=O)N2c2cccnc2)cc1 (stereo unspecified) | inactive | –
CCN(CC)C(=S)NC(=O)c1cccnc1 | – | inconclusive: 14%
COc1cccc(-c2noc(Cn3nc(C(=O)O)c4ccccc4c3=O)n2)c1 | inconclusive: 0.013 µM [cytotoxic, full curve] | –
O=C(NN=Cc1c(O)ccc2ccccc12)c1ccncc1 | inactive | –
CCCN1C(=O)C(NC(C)=O)c2cc(OC)ccc21 (stereo unspecified) | inconclusive: 20.6 µM [cytotoxic, single point] | –
Cc1ccc(S(=O)(=O)N(C)C[C@@H]2OCCCC[C@H](C)Oc3ccc(NC(=O)Nc4ccc(F)cc4)cc3C(=O)N([C@H](C)CO)C[C@H]2C)cc1 | inconclusive: 29.1 µM [cytotoxic, single point] | –
CC1CCCC(C)N1C(=O)c1ccccc1Nc1ccc(SC(F)F)cc1 (stereo unspecified) | inconclusive: 20.6 µM [cytotoxic, partial curve, poor fit] | –
CCOC(=O)c1c(NC(=O)CSc2ncn[nH]2)sc(C(=O)N(C)C)c1C | inconclusive: 10.3 µM [rising, partial curve, poor fit] | –
CNC(=O)/C(C#N)=C1/SC(Cc2ccc(F)cc2)C(=O)N1c1ccccc1 (stereo unspecified) | inactive | –
COc1cccc(NC(=O)NC2(C(F)(F)F)Oc3ccccc3O2)c1 | inconclusive: 32.6 µM [cytotoxic, single point] | –
O=C1OCC2=C1C(c1cccc(Cl)c1)CC(=O)N2c1ccc(C(F)(F)F)cc1 (stereo unspecified) | inactive | –
Cc1ccc(-n2nnnc2SCC(=O)NCC2(N3CCCCC3)CCCCC2)c(C)c1 | inconclusive: 25.9 µM [cytotoxic, single point] | –
C[C@@H]1CN([C@H](C)CO)C(=O)c2cc(NC(=O)Nc3ccc(C(F)(F)F)cc3)ccc2O[C@H]1CN(C)S(=O)(=O)c1cccs1 | inconclusive: 29.1 µM [cytotoxic, single point] | –
CC1CN(C(=O)/C=C/c2ccc([N+](=O)[O-])s2)CC(C)O1 (stereo unspecified) | inconclusive: 20.6 µM [cytotoxic, single point] | –
Cc1c(C(=O)N/N=C/c2ccc(O)c(Br)c2)sc(N)c1C#N | inconclusive: 11.6 µM [rising, partial curve, poor fit] | –
O=S(=O)(c1ccc(N2CCN(S(=O)(=O)c3ccccc3)CC2)nc1)N1CCCC1 | inactive | –
CC(=O)NC(CCS(C)(=O)=O)C(=O)Nc1ccccc1 (stereo unspecified) | inconclusive: 23.1 µM [rising, partial curve, poor fit] | –
COc1ccc2cc(CO)c(Cl)nc2c1 | inconclusive: 7.31 µM [rising, full curve, poor fit] | –
COc1cc(NC(=O)Cn2nc(C(F)(F)F)c3c2CCC3)cc(OC)c1OC | active: 16.4 µM | –
CCC[N+](C)(C)c1ccc(/C=C/c2ccnc3ccccc23)cc1 | active: 1.64 µM | –
O=C1c2ccccc2C(=O)N1CCc1csc(-c2ccccc2)n1 | inconclusive: 29.1 µM [cytotoxic, single point] | –
COc1ccccc1OCc1ccc(C(=O)Nc2ccncc2)o1 | active: 23.1 µM | –
O=C1c2ccc(-c3ccc(F)cc3OCc3ccccc3)cc2S(=O)(=O)c2cccc(C(=O)N3CCCC3)c21 | inconclusive: 23.1 µM [cytotoxic, single point] | –
CCC(CC)C(=O)N1CC(=O)Nc2ccc(F)cc2C1c1ccc(F)cc1 (stereo unspecified) | inconclusive: 29.1 µM [cytotoxic, single point] | –

Compound | Potency | activity change, negative = cytotoxic
COc1ccccc1Cc1c(C2CCCCC2)nc2ccc(Cl)cn12 | inconclusive: 29.1 µM [cytotoxic, single point] | –
CCOC(=O)c1ccc(NC(=O)CN2CCN(CCN=CC3=C(O)CC(C)(C)CC3=O)CC2)cc1 | inconclusive: 29.1 µM [rising, single point] | –
CCCCn1c2nc3ccccc3nc2c2c(=O)n(C(C)CC)cnc21 (stereo unspecified) | inactive | –
CCOc1cc(/C=N/N=C(/N)c2nonc2N)cc(Br)c1OCc1ccc(Cl)cc1 | inconclusive: 23.1 µM [cytotoxic, single point] | –
Cc1cccc(N2C(=N)SCC2=O)c1C | inconclusive: 5.17 µM [cytotoxic, full curve, poor fit] | –
C=CCNc1nc2c(c(=O)n(C)c(=O)n2C)n1Cc1ccc(F)cc1 | inconclusive: 8.2 µM [cytotoxic, partial curve] | –
Cc1ccc(C(=O)Nc2ccc3c(c2)OCO3)o1 | inconclusive: 18.4 µM [cytotoxic, single point] | –
CC(C)CC(=O)NC(c1cccs1)c1ccc2cccnc2c1O (stereo unspecified) | inconclusive: 1.64 µM [cytotoxic, partial curve, poor fit] | –
O=C(CCCn1c2ccccc2c(=O)c2ccccc21)Nc1cccc(Cl)c1 | inconclusive: 29.1 µM [cytotoxic, single point] | –
COc1cccc(CNC(=O)c2cc3c(-c4ccccc4F)nn(C)c3s2)c1 | inconclusive: 25.9 µM [cytotoxic, single point] | –
COc1cc(OC)c(/C=C/c2ccc3ccccc3[n+]2C)c(OC)c1 | active: 0.731 µM | –
O=S(=O)(c1ccc(Br)s1)N1CCN(c2cccc(C(F)(F)F)c2)CC1 | inactive | –
CCOC(=O)c1nnc(-c2ccc(C)cc2)nc1Sc1ccccc1Cl | inconclusive: 16.4 µM [cytotoxic, single point] | –
Cc1ccc(NC(=S)N(Cc2ccco2)C(C)c2cccs2)cc1 (stereo unspecified) | inconclusive: 1.46 µM [rising, full curve, poor fit] | –
O=C1NC(=O)N2CCSC2(Cc2ccccc2)N1 (stereo unspecified) | inconclusive: 16.4 µM [cytotoxic, single point] | –
O=C(NCCc1ccc(Cl)cc1)c1c2c(nc3ccccc13)C(=O)N(C1CCCCC1)C2 | inactive | –
CN1CCN(c2ccc(NC(=O)c3ccc([N+](=O)[O-])o3)cc2Cl)CC1 | inconclusive: 13 µM [cytotoxic, partial curve, poor fit] | –
COc1ccc(CCNC(=O)CCSc2nc(-c3ccco3)cc(C(F)(F)F)n2)cc1OC | inactive | –
COC(=O)c1ccc(CNC(=O)c2ccc(COc3ccccc3)cc2)cc1 | inactive | –
CCCNc1nc2ccccc2c(=O)[nH]1 | inactive | –
COCCCN1C(=O)C(CC(=O)NC(c2ccccc2)c2ccccc2)CC(C(=O)N2CCOCC2)=C1C (stereo unspecified) | inactive | –
CCCOCc1ccc(O)c2ncccc12 | inconclusive: 18.4 µM [cytotoxic, single point] | –
COc1ccc(Cn2c(O)c(C=Nc3ccc(OC)cc3)c3ccccc3c2=O)cc1 | inactive | –
O=C(CCc1ccccc1)Nc1ccc(Cl)cn1 | active: 5.8 µM | –

Compound | Potency | activity change, negative = cytotoxic
COc1cccc(NC2=C(Cl)C(=O)OC2OC(=O)c2ccco2)c1 (stereo unspecified) | inactive | –
Cc1cccc(NC(=O)Cn2nc(-c3ccccc3)c3cnc4ccccc4c32)c1 | inactive | –
Cc1cc(C)n2c(Nc3ccc4c(c3)OCCO4)c(CCc3ccccc3)nc2n1 | inactive | –
Cc1ccccc1Nc1cc(C(=O)NCc2ccco2)c2ccccc2n1 | inconclusive: 29.1 µM [cytotoxic, single point] | –
Cc1cc(OCC(=O)Nc2ccc(N3CCN(C(=O)c4ccco4)CC3)cc2)cc(C)c1Cl | inactive | –
COc1cc2c(cc1NC(=O)C(C)Sc1ccc(NC(C)=O)cc1)oc1ccccc12 (stereo unspecified) | inconclusive: 18.4 µM [cytotoxic, single point] | –
O=C(Nc1cc([N+](=O)[O-])ccc1C(=O)Nc1cccnc1)c1ccccc1 | inactive | –
COc1ccc(-c2c(C#N)c(SCC(=O)c3cc4ccccc4oc3=O)nc(C)c2C(=O)Nc2ccccc2)cc1 | active: 18.4 µM | –
O=C(COC(=O)c1cccnc1Cl)Nc1nc(-c2ccccc2)cs1 | inactive | –
Cc1cc(F)cc(-c2cc(C(=O)NCc3ccco3)[nH]n2)c1 | inactive | –
O=C(c1ccc(Cl)c(Cl)c1)N1CCN(Cc2ccc3c(c2)OCO3)CC1 | inconclusive: 29.1 µM [cytotoxic, single point] | –
Cc1ccc(Cl)cc1-c1ccc(C=Nc2ccc(N3CCOCC3)cc2)o1 | inactive | –
N#Cc1c(-c2ccc(F)cc2)ccnc1N1CCOCC1 | inactive | –
Cc1cc(=O)[nH]c(N/N=C/c2c(C)nn(-c3ccccc3Cl)c2Cl)n1 | inconclusive: 29.1 µM [cytotoxic, single point] | –
CCOC(=O)N1CCC(N2Cc3cccc(C(=O)Nc4ccc(N(CC)CC)cc4C)c3C2=O)CC1 | inconclusive: 16.4 µM [cytotoxic, single point] | –
CC(C)c1nnc(NC(=O)c2c(O)c3cccc4c3n(c2=O)CCC4)s1 | inconclusive: 11.6 µM [cytotoxic, partial curve, poor fit] | –
COc1ccc(C(=O)/C=C/c2ccc(C)cc2)c(OC(=O)c2ccc([N+](=O)[O-])cc2)c1 | inconclusive: 20.6 µM [cytotoxic, single point] | –
O=S(=O)(c1ccccc1)[C@@]1(c2ccccc2)C[C@@H]2ON=C(c3cccc(Br)c3)[C@@H]2C1 | inconclusive: 29.1 µM [cytotoxic, single point] | –
CCOC(=O)c1cc(C(=O)NCc2ccc(Cl)cc2Cl)nn1C | inconclusive: 8.2 µM [rising, partial curve] | –
Cc1nn(-c2ccccc2)c(N)c1N=Nc1cccc(S(=O)(=O)N2CCOCC2)c1 | inconclusive: 18.4 µM [cytotoxic, partial curve, poor fit] | –
CC(C)c1nc2ccccn2c1NC1CCCCC1 | inactive | –
COCCOC(=O)c1[nH]c2c(c1C)C(=O)CC(c1cccs1)C2 (stereo unspecified) | active: 1.84 µM | –
CCOc1cccc(-c2nnc3sc(COc4ccc(Cl)cc4)nn23)c1 | active: 20.6 µM | –

Look-ups from the list:
Value for Cc1nn(-c2ccccc2)c(N)c1N=Nc1cccc(S(=O)(=O)N2CCOCC2)c1 under Potency: inconclusive: 18.4 µM [cytotoxic, partial curve, poor fit]
Value for Cc1ccc(Cl)cc1-c1ccc(C=Nc2ccc(N3CCOCC3)cc2)o1 under Potency: inactive
Value for Cc1cc(=O)[nH]c(N/N=C/c2c(C)nn(-c3ccccc3Cl)c2Cl)n1 under Potency: inconclusive: 29.1 µM [cytotoxic, single point]
Value for CC(C)c1nnc(NC(=O)c2c(O)c3cccc4c3n(c2=O)CCC4)s1 under Potency: inconclusive: 11.6 µM [cytotoxic, partial curve, poor fit]
